According to paper doi:10.1101/420000:
No constants are given. Whether binding was seen depends on the method and setting. Binding seen in cells or lysates may run through a third protein. Some entries that bind do so weakly or less than the wild type.

By UniProt entry, the sequences of proteins in these tests, tags left out.
UniProt P06493: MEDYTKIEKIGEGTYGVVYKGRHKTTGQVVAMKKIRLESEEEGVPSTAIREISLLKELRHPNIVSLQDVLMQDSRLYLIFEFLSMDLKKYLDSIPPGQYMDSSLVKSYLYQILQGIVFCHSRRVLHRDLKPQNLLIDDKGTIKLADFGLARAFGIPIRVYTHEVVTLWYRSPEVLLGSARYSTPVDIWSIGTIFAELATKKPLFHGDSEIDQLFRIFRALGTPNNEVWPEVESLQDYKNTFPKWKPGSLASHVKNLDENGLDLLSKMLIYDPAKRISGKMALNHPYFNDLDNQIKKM
UniProt Q96EB6: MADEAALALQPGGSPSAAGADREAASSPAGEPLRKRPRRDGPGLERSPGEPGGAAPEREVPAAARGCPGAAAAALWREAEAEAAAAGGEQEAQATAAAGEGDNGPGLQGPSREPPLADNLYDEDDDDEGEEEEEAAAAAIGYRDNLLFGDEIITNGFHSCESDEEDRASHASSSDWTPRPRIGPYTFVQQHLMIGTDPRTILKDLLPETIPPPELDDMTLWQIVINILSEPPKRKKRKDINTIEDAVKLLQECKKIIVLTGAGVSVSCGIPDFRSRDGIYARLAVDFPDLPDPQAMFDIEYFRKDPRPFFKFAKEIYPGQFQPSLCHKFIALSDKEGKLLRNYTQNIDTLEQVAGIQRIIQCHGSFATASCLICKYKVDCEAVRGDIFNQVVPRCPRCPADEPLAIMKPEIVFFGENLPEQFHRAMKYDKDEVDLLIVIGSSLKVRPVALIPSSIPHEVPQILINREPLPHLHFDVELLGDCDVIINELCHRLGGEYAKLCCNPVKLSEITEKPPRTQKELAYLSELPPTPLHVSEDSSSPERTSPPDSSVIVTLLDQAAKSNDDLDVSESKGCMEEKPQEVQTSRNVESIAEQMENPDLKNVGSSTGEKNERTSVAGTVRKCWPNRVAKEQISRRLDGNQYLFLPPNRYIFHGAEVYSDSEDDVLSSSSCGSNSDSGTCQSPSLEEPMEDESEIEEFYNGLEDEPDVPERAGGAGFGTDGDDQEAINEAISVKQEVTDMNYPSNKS

Target: CDK1-WT-HA (UniProt P06493)
Experiment: co-IP

binding: binds
Substance: SIRT1 (from UniProt Q96EB6) (enzyme)
